PMC7719821
Results are given in words; binding and its absence hold for the method and conditions named. Some binding calls cover weakened binding; strength is not graded here.

Amino acid sequences for entries named in this document (tags omitted).
UniProt P27434: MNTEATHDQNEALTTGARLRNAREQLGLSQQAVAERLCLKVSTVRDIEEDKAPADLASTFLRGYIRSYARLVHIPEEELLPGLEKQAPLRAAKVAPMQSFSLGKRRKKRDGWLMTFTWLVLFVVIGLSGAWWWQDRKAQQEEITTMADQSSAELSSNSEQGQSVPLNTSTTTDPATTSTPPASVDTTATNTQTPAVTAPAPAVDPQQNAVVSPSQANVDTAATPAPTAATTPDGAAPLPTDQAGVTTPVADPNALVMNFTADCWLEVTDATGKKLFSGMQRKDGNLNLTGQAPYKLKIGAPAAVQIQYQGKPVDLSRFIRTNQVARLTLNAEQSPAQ
UniProt P0A9X4: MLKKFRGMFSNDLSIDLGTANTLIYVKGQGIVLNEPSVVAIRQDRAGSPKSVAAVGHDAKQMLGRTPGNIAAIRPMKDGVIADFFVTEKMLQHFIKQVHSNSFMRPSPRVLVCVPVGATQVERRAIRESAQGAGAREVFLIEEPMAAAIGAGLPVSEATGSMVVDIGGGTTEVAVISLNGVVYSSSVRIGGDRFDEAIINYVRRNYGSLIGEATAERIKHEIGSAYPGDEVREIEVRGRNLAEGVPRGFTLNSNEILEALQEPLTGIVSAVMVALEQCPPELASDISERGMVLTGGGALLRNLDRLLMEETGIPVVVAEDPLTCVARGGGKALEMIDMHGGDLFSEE

Molecular target: RodZ (Escherichia coli) (UniProt P27434)
Experiment: two-hybrid; bacterial two-hybrid assay as in Shiomi and Margolin, 2007; in WT cells and in cells lacking anionic phospholipids (ΔaPLs)

## MreB (from UniProt P0A9X4 1-347)
  binding: binds
